Reference: the supplement of paper PMC5949888
Most values lie at the floor of the assay. Slopes are relative: functional sequences can read slightly below zero.

Test system: Saccharomyces cerevisiae PS128 hsf1 delta, HSF1(1-493) fusion
Experiment: growth estimate (transactivation domain function in HSF1 fusion, heat-shock survival) (a.u. (slope of normalised read count over time)); higher = stronger growth at 37°C, i.e. more transactivation activity
Settings: library: random library

With RGLQYLLIAKRGHLRLRHVC as the substance, how does the growth estimate read?
The growth estimate was < -0.25.

With RGLSGRRSLRNLTGVCEYLA as the substance, how does the growth estimate read?
Its growth estimate is < -0.25.

How did the growth estimate turn out when RGLTSLEGLSV was run?
The growth estimate was < -0.25.

With RGMAEQRLVSMGRNMNSTRY as the substance, how does the growth estimate read?
The growth estimate was < -0.25.

How did the growth estimate turn out when RGMMQAIYPRQQVTARCSMA was run?
Its growth estimate is < -0.25.

Which growth estimate does the source give for RGMPAPPVREAEHGGTSYSL here?
The growth estimate was < -0.25.

RGMPGAS was tested. Which growth estimate did it give?
Its growth estimate is < -0.25.

Which growth estimate does the source give for RGMSEDRGSTVLAP here?
The growth estimate was < -0.25.

For RGNLVLNCGVPECP, which growth estimate is on record?
Its growth estimate is < -0.25.

How did the growth estimate turn out when RGNQ was run?
Its growth estimate is < -0.25.

For RGPCKPVRWLLSPVRAPGQR, which growth estimate is on record?
Its growth estimate is < -0.25.

With RGPLSLSTCGQLLGASVGIC as the substance, how does the growth estimate read?
The growth estimate was < -0.25.

Which growth estimate does the source give for RGPPIHS here?
Its growth estimate is < -0.25.

For RGPQRGTRLRAKRIVAAFAI, which growth estimate is on record?
The growth estimate was < -0.25.

How did the growth estimate turn out when RGPTEP was run?
The growth estimate was < -0.25.

RGPYDFSRSSAISRDETST was tested. Which growth estimate did it give?
The growth estimate was < -0.25.

Which growth estimate does the source give for RGQTRQSSRLSCWVSAQNAR here?
Its growth estimate is < -0.25.

RGRGLSSEK was tested. Which growth estimate did it give?
The growth estimate was < -0.25.

For RGRISPDLLMSAKETGQRTR, which growth estimate is on record?
The growth estimate was < -0.25.

With RGRKE as the substance, how does the growth estimate read?
The growth estimate was -0.25.

How did the growth estimate turn out when RGRNKAGGSRWRPHSTLGRS was run?
The growth estimate was < -0.25.

With RGRRGCSGLDWV as the substance, how does the growth estimate read?
Its growth estimate is < -0.25.

How did the growth estimate turn out when RGRSIEVR was run?
The growth estimate was < -0.25.

Which growth estimate does the source give for RGRTFSPR here?
The growth estimate was < -0.25.

How did the growth estimate turn out when RGRYTHRPRILVVAYTLRPN was run?
Its growth estimate is < -0.25.

Which growth estimate does the source give for RGSCRKRGHGHRQQERTTPF here?
Its growth estimate is < -0.25.

With RGSGPR as the substance, how does the growth estimate read?
The growth estimate was < -0.25.

With RGSISSSLETTHASRGSVDT as the substance, how does the growth estimate read?
The growth estimate was < -0.25.

RGSLRTILSLMAVD was tested. Which growth estimate did it give?
The growth estimate was < -0.25.

How did the growth estimate turn out when RGSSPEISGHSSGVVDRDHG was run?
Its growth estimate is < -0.25.

Which growth estimate does the source give for RGSSVPDTVSAN here?
Its growth estimate is < -0.25.

For RGSVRTQKRIS, which growth estimate is on record?
The growth estimate was < -0.25.

Which growth estimate does the source give for RGTARGRRSSRIWRMSSD here?
Its growth estimate is < -0.25.

For RGTDGN, which growth estimate is on record?
The growth estimate was < -0.25.

With RGTFASVGKSIMGSRDLKDR as the substance, how does the growth estimate read?
Its growth estimate is < -0.25.

Which growth estimate does the source give for RGTGVKARRRSWPTSVGCFS here?
Its growth estimate is < -0.25.

With RGTPVLVFLTPRAIPFTNLP as the substance, how does the growth estimate read?
Its growth estimate is < -0.25.

For RGTRRTFNAWGPMWV, which growth estimate is on record?
The growth estimate was < -0.25.

Which growth estimate does the source give for RGVETKVQGYVMNVASIAGS here?
The growth estimate was < -0.25.

Which growth estimate does the source give for RGVGGLSLNCRLLSGVRALT here?
The growth estimate was < -0.25.

How did the growth estimate turn out when RGVGSWDFFLGET was run?
The growth estimate was < -0.25.

RGVHLTNERMGMRRSRICER was tested. Which growth estimate did it give?
Its growth estimate is < -0.25.

For RGVIIVWHV, which growth estimate is on record?
Its growth estimate is < -0.25.

How did the growth estimate turn out when RGVLIYYSVPVEGA was run?
Its growth estimate is < -0.25.

With RGVPCLLARADTDDAW as the substance, how does the growth estimate read?
The growth estimate was < -0.25.

Which growth estimate does the source give for RGVSKACFVGTYIT here?
The growth estimate was < -0.25.

With RGWSG as the substance, how does the growth estimate read?
Its growth estimate is < -0.25.

How did the growth estimate turn out when RGWTATYEHCPILNRSRVLS was run?
The growth estimate was -0.246.

With RGYIHSYDGGADASVHNIRN as the substance, how does the growth estimate read?
Its growth estimate is < -0.25.

RHEEGIDPRVGLYVS was tested. Which growth estimate did it give?
The growth estimate was < -0.25.

With RHERINVSAPASGRSGTLVR as the substance, how does the growth estimate read?
The growth estimate was < -0.25.

How did the growth estimate turn out when RHGPYGGRLTNAAAEM was run?
Its growth estimate is -0.227.

How did the growth estimate turn out when RHLATKKITFVQLPPAHEVQ was run?
Its growth estimate is < -0.25.

For RHLRCVETGHRH, which growth estimate is on record?
Its growth estimate is < -0.25.

How did the growth estimate turn out when RHMLEPHDSPTPTARGPQSR was run?
Its growth estimate is < -0.25.

RHPPLPRHWHRH was tested. Which growth estimate did it give?
Its growth estimate is -0.248.

For RHQGFVGRHREC, which growth estimate is on record?
Its growth estimate is < -0.25.

Which growth estimate does the source give for RHQNMEFGRMESSQGGSLGG here?
Its growth estimate is < -0.25.

With RHQSYV as the substance, how does the growth estimate read?
The growth estimate was < -0.25.

For RHRPIFPSVVGRTVSPYDRS, which growth estimate is on record?
Its growth estimate is < -0.25.

RHVASTRVWGNIHCGEDRIE was tested. Which growth estimate did it give?
The growth estimate was -0.229.

Which growth estimate does the source give for RHVCSCRARLVIHVLGDVTG here?
The growth estimate was < -0.25.

How did the growth estimate turn out when RHVGRPDGMD was run?
The growth estimate was < -0.25.

Which growth estimate does the source give for RHVRGYTACFRPFVTLGLRF here?
Its growth estimate is < -0.25.

RHWLTCREINLPCYWYLSGS was tested. Which growth estimate did it give?
Its growth estimate is < -0.25.

For RHWVVSLKTRLTIA, which growth estimate is on record?
Its growth estimate is < -0.25.

RHWWFCPSWSTPDYRVADYC was tested. Which growth estimate did it give?
Its growth estimate is < -0.25.

For RHYGPRVPRHCP, which growth estimate is on record?
The growth estimate was < -0.25.

Which growth estimate does the source give for RHYSRTRVKPLPDRISLISQ here?
The growth estimate was < -0.25.

How did the growth estimate turn out when RIAAFSWRFFLPLRFITTCH was run?
The growth estimate was < -0.25.

How did the growth estimate turn out when RIADEIFYGSKHRIG was run?
Its growth estimate is < -0.25.

RICGG was tested. Which growth estimate did it give?
Its growth estimate is < -0.25.

How did the growth estimate turn out when RICGVIGLAPAYGFFDRVLA was run?
The growth estimate was < -0.25.

Which growth estimate does the source give for RICLWYVATCR here?
Its growth estimate is < -0.25.

Which growth estimate does the source give for RICVRQGLSSLR here?
The growth estimate was < -0.25.

RIDGSIPLYPVAAFGQWMSR was tested. Which growth estimate did it give?
Its growth estimate is < -0.25.

How did the growth estimate turn out when RIDGSTDRL was run?
Its growth estimate is < -0.25.

Which growth estimate does the source give for RIDVPCRFLTTMDGFNHSW here?
The growth estimate was < -0.25.

For RIFDMKGGPDPGR, which growth estimate is on record?
The growth estimate was < -0.25.

How did the growth estimate turn out when RIFKFAFRVGAR was run?
Its growth estimate is < -0.25.

Which growth estimate does the source give for RIFRT here?
Its growth estimate is < -0.25.

With RIGDPIFHPNRGQVSGKPRP as the substance, how does the growth estimate read?
The growth estimate was < -0.25.

RIGIGSGVRSNSANVHMPRS was tested. Which growth estimate did it give?
Its growth estimate is < -0.25.

For RIGSLREGPSRSDDCDRDAQ, which growth estimate is on record?
Its growth estimate is < -0.25.

With RIGVGVTPQGWVM as the substance, how does the growth estimate read?
The growth estimate was < -0.25.

For RIGWSRISRLLPSMVYSRNG, which growth estimate is on record?
Its growth estimate is < -0.25.

Which growth estimate does the source give for RIHPTVEVFSIRACGSGLRL here?
The growth estimate was < -0.25.

How did the growth estimate turn out when RIHRGKRIWGPTDI was run?
The growth estimate was < -0.25.

Which growth estimate does the source give for RIIGSLGSPI here?
Its growth estimate is -0.248.

RIITMSCRGPSCRTRERGCM was tested. Which growth estimate did it give?
Its growth estimate is < -0.25.

Which growth estimate does the source give for RIKCK here?
The growth estimate was < -0.25.

How did the growth estimate turn out when RIKGSDS was run?
The growth estimate was < -0.25.

RILCR was tested. Which growth estimate did it give?
Its growth estimate is < -0.25.

With RILFGRRNRCWTLA as the substance, how does the growth estimate read?
The growth estimate was < -0.25.

How did the growth estimate turn out when RILSDSYGRHLLAGRAIWWV was run?
Its growth estimate is < -0.25.

How did the growth estimate turn out when RILSRFP was run?
The growth estimate was < -0.25.

How did the growth estimate turn out when RIMIMVPVCVKS was run?
Its growth estimate is < -0.25.

With RIML as the substance, how does the growth estimate read?
The growth estimate was < -0.25.

RIMPFVF was tested. Which growth estimate did it give?
Its growth estimate is < -0.25.

How did the growth estimate turn out when RINRDPFYLISHANSDVHHL was run?
The growth estimate was < -0.25.
